Source: publication PMC2918618, “Characterization of the TnsD-attTn7 complex that promotes site-specific insertion of Tn7” (Mobile DNA, 2010)

Biological target: T1, TnsD wt (Escherichia coli (transposon Tn7)) (UniProt P13991)
T1 sequence (looked up): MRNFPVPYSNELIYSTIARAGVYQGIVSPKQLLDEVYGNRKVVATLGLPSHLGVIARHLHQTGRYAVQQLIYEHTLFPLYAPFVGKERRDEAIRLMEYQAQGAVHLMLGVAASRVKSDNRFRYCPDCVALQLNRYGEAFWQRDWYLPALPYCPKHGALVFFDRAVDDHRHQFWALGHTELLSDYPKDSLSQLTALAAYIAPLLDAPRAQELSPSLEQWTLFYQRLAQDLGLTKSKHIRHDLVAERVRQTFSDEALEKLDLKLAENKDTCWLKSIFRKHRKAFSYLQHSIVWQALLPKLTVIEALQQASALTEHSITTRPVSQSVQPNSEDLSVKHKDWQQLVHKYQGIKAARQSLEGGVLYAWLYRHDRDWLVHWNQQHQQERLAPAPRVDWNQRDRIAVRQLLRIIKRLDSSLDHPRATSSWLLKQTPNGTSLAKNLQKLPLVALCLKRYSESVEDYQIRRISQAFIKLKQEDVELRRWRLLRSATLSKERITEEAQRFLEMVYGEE
Experiment: EMSA
Conditions: 2 mM 1,10-phenanthroline (Zn chelator); Gel-shift buffer not given (as described in ref. 6); TnsD stored in 500 mM KCl, 50 mM Tris-HCl pH 8.0, 1 mM EDTA, 2 mM DTT, 25% glycerol; recombinant protein; residues 1-508; protein details: intein-chitin tag, cleaved with DTT

“CCGCGTAACCTGGCAAAATCGGTTACGGTTGAGTAA (double strand) [attTn7 wt (+23 to +58)]”: binds more weakly.

The exact form of at least one protein or probe is not confirmed. The comparison behind a weaker result is the experiment's own reference, which may not be listed here. Protein sequences can lack the tags named with them.
